# These are yes or no findings as the source states them, for the method shown. For some assays here: Binding seen in cells or lysates may run through a third protein. Some entries that bind do so weakly or less than the wild type.
# Protein sequences, listed by entry. Tags and fused reporters are not part of them. Residues count along the entry.
# UniProt Q9UHX3, residues 24-823: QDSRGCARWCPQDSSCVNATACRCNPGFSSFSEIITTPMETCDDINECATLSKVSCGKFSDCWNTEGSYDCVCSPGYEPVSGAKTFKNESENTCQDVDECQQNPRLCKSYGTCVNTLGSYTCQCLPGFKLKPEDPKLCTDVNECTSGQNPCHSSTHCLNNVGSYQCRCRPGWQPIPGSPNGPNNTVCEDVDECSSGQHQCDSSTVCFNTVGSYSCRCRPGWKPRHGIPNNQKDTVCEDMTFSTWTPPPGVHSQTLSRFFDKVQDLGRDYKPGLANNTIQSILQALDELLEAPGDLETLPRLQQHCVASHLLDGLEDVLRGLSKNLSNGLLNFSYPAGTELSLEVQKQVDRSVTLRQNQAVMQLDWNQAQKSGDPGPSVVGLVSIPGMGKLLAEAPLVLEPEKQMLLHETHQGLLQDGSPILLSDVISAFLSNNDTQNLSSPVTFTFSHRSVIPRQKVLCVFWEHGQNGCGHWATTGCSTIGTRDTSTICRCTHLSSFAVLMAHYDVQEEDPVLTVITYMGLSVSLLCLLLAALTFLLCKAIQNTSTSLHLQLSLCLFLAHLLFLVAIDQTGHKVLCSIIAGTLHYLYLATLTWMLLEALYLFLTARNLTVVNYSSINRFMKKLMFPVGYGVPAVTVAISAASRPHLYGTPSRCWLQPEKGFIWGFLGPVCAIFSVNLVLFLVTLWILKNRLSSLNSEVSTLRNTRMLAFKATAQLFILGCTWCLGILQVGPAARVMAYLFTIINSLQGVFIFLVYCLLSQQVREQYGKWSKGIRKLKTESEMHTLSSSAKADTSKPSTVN
# UniProt P02769, residues 25-607: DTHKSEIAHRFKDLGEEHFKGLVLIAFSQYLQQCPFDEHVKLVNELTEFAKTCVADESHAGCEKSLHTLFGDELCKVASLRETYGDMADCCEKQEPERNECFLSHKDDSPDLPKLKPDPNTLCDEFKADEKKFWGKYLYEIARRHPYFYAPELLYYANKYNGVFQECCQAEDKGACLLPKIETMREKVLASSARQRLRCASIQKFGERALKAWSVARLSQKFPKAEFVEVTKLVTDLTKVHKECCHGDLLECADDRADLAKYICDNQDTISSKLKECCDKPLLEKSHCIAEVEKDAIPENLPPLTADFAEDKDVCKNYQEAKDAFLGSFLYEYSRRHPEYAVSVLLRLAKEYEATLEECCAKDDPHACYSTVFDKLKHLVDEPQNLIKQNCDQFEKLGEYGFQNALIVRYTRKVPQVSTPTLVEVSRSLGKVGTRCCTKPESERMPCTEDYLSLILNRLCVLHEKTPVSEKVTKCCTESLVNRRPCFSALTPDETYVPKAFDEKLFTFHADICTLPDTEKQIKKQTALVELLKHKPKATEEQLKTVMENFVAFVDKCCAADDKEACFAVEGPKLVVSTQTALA
# UniProt Q03591, residues 19-330: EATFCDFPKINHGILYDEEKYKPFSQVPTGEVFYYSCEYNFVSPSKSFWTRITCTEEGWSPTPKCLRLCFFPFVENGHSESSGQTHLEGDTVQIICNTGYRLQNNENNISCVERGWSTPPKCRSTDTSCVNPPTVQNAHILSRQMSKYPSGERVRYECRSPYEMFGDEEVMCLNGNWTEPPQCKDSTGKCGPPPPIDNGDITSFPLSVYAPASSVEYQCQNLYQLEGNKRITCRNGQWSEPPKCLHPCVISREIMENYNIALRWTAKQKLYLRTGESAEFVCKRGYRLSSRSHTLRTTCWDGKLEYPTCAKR
# How the values were obtained:
# [1] = molecular target: EMR2 receptor on monocytes and in patient tissue (human (endogenous in blood monocytes and patient tissue)) (UniProt Q9UHX3); test: proximity ligation; paraffin sections of AAV kidney biopsies and human atherosclerotic plaques; monoclonal mouse anti-FHR1 with rabbit anti-EMR2 antiserum or TGFβRI antibody
# [2] = molecular target: T1, TGFβRI (human (endogenous in whole blood cells and patient tissue)) (UniProt P36897); test: as above
# T1 sequence: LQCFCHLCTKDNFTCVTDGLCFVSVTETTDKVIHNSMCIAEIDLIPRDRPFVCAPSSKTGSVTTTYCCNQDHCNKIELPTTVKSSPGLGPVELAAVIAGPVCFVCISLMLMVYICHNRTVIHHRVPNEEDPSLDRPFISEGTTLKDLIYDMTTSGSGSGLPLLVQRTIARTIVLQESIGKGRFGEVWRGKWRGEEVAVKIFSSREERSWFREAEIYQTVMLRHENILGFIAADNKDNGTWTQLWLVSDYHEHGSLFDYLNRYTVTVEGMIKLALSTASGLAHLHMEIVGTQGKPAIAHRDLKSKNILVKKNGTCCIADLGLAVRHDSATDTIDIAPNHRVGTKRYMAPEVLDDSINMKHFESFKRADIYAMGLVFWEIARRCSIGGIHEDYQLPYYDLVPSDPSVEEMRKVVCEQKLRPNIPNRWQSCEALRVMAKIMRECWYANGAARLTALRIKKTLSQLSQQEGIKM
# [3] = molecular target: EMR2 receptor on monocytes and in patient tissue (human (endogenous in blood monocytes and patient tissue)) (UniProt Q9UHX3); test: proximity ligation; ex vivo whole blood model: adherent whole blood cells with heat-necrotic cells preincubated in NHS of the same donor, 10% NHS, 1.5 h; fixed, permeabilised; monoclonal mouse FHR1 antibody with rabbit anti-EMR2 antiserum or TGFβRI antibody; FHR1 sufficient and ΔFHR1/3 donors
# [4] = molecular target: T1, TGFβRI (human (endogenous in whole blood cells and patient tissue)); test: as above
# [5] = molecular target: BSA (bovine (from the name BSA)) (UniProt P02769); test: ELISA; BSA (5 µg mL^-1) coated 1 h at 37 °C, blocked; FHR1 30 µg mL^-1 2 h at RT; polyclonal FHR1 antiserum; both purified
binding [1],binding [2],binding [5],Substance,binding [3],binding [4]
binds,no binding,–,Serum-derived FHR1 (from UniProt Q03591 19-330),binds,no binding
–,–,no binding (tested: 30 µg mL^-1),Recombinant factor H-related protein FHR1 (from UniProt Q03591 19-330),–,–

# Reference: paper PMC6609651
